According to PMC6199276:
These are yes or no findings as the source states them, for the method shown. Binding seen in cells or lysates may run through a third protein. Some entries that bind do so weakly or less than the wild type.

Sequences of proteins named here, by UniProt entry; tags and fusion partners are left off.
UniProt P19484: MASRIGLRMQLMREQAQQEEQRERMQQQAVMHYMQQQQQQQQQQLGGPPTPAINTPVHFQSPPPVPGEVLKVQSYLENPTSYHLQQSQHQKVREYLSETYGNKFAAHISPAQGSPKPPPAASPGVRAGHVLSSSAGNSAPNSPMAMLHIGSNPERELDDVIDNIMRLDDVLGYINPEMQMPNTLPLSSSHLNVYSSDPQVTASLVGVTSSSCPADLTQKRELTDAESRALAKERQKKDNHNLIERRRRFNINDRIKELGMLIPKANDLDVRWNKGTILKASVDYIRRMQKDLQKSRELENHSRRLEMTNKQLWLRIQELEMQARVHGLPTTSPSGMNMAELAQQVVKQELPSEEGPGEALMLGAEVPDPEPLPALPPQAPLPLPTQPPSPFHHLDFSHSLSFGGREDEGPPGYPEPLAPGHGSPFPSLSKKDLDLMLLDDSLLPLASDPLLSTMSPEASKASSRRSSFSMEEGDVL
UniProt Q12778: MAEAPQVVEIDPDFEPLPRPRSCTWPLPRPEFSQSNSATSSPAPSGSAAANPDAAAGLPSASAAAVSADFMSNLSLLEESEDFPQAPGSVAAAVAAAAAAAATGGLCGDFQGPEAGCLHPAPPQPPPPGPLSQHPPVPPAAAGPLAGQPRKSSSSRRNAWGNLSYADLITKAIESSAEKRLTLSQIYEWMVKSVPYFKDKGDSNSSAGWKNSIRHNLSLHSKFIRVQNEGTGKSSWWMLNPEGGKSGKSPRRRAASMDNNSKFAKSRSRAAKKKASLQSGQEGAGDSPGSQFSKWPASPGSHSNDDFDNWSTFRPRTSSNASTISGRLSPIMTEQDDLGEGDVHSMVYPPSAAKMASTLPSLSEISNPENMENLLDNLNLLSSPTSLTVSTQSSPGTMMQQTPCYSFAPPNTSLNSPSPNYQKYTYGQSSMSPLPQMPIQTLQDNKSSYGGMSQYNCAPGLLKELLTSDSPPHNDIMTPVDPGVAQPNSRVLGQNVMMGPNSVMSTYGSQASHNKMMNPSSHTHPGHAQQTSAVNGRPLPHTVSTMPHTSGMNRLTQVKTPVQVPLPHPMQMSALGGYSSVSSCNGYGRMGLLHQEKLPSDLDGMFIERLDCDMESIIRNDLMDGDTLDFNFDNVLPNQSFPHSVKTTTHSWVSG
UniProt O43524: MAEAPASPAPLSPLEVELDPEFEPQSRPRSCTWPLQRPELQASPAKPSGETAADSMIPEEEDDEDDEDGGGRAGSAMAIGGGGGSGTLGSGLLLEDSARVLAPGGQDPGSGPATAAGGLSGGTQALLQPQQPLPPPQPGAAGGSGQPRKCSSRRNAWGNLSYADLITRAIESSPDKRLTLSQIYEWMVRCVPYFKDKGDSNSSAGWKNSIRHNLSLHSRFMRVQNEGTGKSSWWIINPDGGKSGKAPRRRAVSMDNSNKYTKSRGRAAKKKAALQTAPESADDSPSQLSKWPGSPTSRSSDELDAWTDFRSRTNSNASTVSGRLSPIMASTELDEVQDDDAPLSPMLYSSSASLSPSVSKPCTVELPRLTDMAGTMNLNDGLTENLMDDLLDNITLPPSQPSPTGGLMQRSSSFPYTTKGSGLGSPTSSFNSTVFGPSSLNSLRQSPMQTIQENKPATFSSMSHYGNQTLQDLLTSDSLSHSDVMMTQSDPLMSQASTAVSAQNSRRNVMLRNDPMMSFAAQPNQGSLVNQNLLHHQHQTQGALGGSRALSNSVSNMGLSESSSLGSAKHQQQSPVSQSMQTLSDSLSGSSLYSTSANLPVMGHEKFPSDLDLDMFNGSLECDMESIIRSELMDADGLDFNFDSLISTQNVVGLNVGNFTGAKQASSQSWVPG

Target: GFP-tagged TFEB (pEGFP-N1-TFEB) (human) (UniProt P19484)
Assay: co-IP; HEK293T cells transfected with GFP-FOXO1 or pEGFP-N1-TFEB, treated with 20 uM LY294002 for 48 h; GFP-Trap resin; 50 mM HEPES pH 7.4, 150 mM KCl, 0.5% NP-40; western blot anti-GFP, anti-FOXO1, anti-FOXO3A, anti-TFEB

binding	Substance
binds	FOXO1 (from UniProt Q12778 1-655)
no binding	FOXO3 (from UniProt O43524 1-673)
